Experimental data taken from patent US9629830B2, “EphA4 inhibitors as neuroprotective agents” (The Hong Kong University of Science and Technology, priority 2013, dated 2017).
At least one compound was matched to its structure with a doubt left. Some results were stated once for a whole list of compounds, not compound by compound.

Amino acid sequences for entries named in this document (tags omitted). Residues count along the entry.
UniProt D3ZZK3, 20-986: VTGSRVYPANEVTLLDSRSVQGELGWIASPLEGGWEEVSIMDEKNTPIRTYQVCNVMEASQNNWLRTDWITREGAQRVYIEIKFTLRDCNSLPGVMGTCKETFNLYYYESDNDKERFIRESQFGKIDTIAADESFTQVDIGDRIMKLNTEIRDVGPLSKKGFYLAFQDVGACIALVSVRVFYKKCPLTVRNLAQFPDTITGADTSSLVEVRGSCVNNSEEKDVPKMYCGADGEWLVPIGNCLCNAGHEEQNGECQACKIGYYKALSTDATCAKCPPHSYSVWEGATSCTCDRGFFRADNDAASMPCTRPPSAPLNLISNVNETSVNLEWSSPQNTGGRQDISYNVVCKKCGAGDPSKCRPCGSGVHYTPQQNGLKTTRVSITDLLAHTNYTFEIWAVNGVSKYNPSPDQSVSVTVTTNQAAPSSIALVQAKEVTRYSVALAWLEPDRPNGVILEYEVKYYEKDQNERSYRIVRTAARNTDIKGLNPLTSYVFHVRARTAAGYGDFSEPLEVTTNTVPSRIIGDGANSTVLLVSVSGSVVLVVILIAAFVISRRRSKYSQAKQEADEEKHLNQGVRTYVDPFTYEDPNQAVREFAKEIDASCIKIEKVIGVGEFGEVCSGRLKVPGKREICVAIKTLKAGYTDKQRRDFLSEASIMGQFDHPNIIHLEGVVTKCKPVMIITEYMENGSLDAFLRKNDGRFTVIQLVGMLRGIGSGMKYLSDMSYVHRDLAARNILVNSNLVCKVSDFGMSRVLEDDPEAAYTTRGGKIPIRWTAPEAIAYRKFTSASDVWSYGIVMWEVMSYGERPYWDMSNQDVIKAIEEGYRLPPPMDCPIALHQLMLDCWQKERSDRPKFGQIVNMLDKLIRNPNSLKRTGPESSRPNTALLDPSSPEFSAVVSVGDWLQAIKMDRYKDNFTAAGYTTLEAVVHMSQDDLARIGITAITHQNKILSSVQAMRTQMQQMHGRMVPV

Legend:
EphA4 = target: T1, EphA4 (Rattus norvegicus, UniProt D3ZZK3); test: Ephrin-A1-induced EphA4 cluster assay in cultured hippocampal neurons; type: cell-based
T1 construct: endogenous in cells; host or cells: primary rat cortical neurons (A5), primary rat hippocampal neurons (A7)
Method: (§1) For EphA4 clustering, neurons were stained with anti-EphA4 and anti-Tau-1 antibodies. For the growth cone collapse assay, neurons were stained with Alexa Fluor 555-conjugated phalloidin (Molecular Probes) for filamentous actin and anti-Tau-1 antibody for axons. Collapsed growth cones were scored in a double-blinded manner. The experiments were repeated at least 3 times, and >50 neurons were analyzed for each experiment. Data are presented as mean±SEM.
Rat hippocampal neurons were seeded on 48-well plates coated with poly-D-lysine (50 μg/mL) at 6000 cells per well. Neurons were incubated with Neurobasal medium (Invitrogen) supplemented with 2% B27 (Invitrogen). […] Neurons were then immunostained with anti-EphA4 and anti-Tau-1 antibodies. The cellular imaging and quantification of EphA4 clusters was performed using IN Cell Analyzer 6000 high content assay system (GE Healthcare). EphA4 clusters were quantified by calculating the proportion of total area of EphA4 clusters on axons against Tau positive area. Statistical analysis was performed with one-way ANOVA followed by Newman-Keuls Multiple Comparison Test (Prism 5 GraphPad Software).

[1] = tested on: EphA4-dependent growth cone collapse in hippocampal neurons; test: EphA4-dependent (ephrin-A1-stimulated) growth cone collapse assay; type: cell-based, rat; conditions: cultured hippocampal neurons
Method: Ephrin-A1-Fc was pre-clustered with goat anti-human Fc antibody (1:4.5)^24 and incubated at room temperature for 60 min before use. The growth cone collapse assay was performed in hippocampal neurons with ephrin-A1 0.1 μg/mL as described previously^61.
as §1
To screen for small molecule EphA4 inhibitors, the inventors performed a molecular docking analysis using a small molecule library. […] Their ability in inhibiting EphA4 inhibiting the EphA4-dependent growth cone collapse using cultured hippocampal neurons was performed.

APP/PS1 mutant mice = test: HFS-induced hippocampal LTP in WT and APP/PS1 mice after in vivo treatment; design: species or system mouse; conditions: corylin oral 50 or 100 mg/kg daily gavage for 3-4 weeks
Excerpt: APP/PS1 double-transgenic mice were obtained from Jackson Laboratory (B6C3-Tg[APPswe, PSEN1dE9]85Dbo/J)^66. These mice were generated by incorporating a human/murine APP construct bearing the Swedish double mutation and the exon-9-deleted PSEN1 mutation (APPswe+PSEN1/dE9). APP transgenic mice (Tg2576) expressing a double mutant of human AβPP (Lys^670→Asn^670, Met^671→Leu^671) were also used^31. Both sexes were used for experiments, and all mice used in this study were produced by the Animal Care Facility of The Hong Kong University of Science and Technology. The genotype was confirmed by polymerase chain reaction analysis of tail biopsies. […]
For LTP recordings, mouse brains were immediately dissected after sacrifice and soaked in ice-cold 95% O2/5% CO2 (aCSF)^58. […] For treatment with EphA4 inhibitors, the slices were pretreated with peptides or chemicals for 1 h before application of Aβ. fEPSPs were recorded using a MED64 multichannel recording system, and the data were collected from the dendritic layer of area CA1 at a sampling rate of 10 kHz. For each slice, the baseline stimulus intensity was set at the level that elicited ˜50% of the maximum fEPSP response determined according to the input-output curve. […] The magnitude of LTP was quantified as a percentage change in the fEPSP slope (10%-90%) taken during the 60-min interval after LTP induction. […]

CC(C)=CCc1cc(-c2coc3cc(O)cc(O)c3c2=O)ccc1O [Corylin, corylin]
ephrin-A1-induced EphA4 clustering (EphA4; cultured hippocampal neurons 3 DIV, different concentrations): reduced the ephrin-A1-induced EphA4 clustering
ephrin-A1-stimulated growth cone collapse [1]: inhibited ephrin-A1-stimulated growth cone collapse
LTP impairment in APP/PS1 (Tg) mice (APP/PS1 mutant mice): rescued the LTP impairment in Tg mice

CC[C@H]1CN2CC[C@]3(C(=O)N(CCCCCCCCOc4ccc(OC)c(OC)c4)c4ccccc43)[C@@H]2C[C@@H]1/C(=C\OC)C(=O)OC [RHY-37]
reduction of ephrin-A1-induced EphA4 clustering (EphA4; 30 μM, 20 min pretreatment, then ephrin-A1 40 min, some sentences add 'when compared to Rhy'): 70-80%
